Results from US20120220029.

Chains of the proteins cited; added tags and fusions are not shown. Where a name states a change or a piece, a line headed by the entry shows the natural chain unless it says otherwise. Chains listed by the source or under a name are the forms on record and can include a tag or linker.
Sox17HMG/Oct4POU (Mus musculus), one chain, as listed by the source, chain 1 of 2: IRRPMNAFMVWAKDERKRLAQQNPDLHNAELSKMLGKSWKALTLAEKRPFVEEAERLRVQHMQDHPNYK
Sox7HMG/Oct4POU (Mus musculus), one chain, as listed by the source, chain 1 of 2: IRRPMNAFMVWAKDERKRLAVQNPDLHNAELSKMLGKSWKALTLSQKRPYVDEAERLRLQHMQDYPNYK
Sox17HMG/Oct4POU (Mus musculus), one chain, as listed by the source, chain 2 of 2: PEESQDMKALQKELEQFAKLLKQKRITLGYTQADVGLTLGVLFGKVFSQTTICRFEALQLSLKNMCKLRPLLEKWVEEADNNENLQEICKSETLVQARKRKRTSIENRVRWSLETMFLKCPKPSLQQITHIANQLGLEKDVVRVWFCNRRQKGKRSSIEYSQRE
Sox2HMG1/Oct4POU (Mus musculus), one chain, as listed by the source, chain 1 of 2: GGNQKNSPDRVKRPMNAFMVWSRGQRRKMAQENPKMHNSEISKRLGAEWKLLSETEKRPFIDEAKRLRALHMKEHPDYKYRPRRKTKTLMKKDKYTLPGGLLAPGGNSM

Tests used:
Test in all cases: EMSA
[1] = system: Sox17HMG/Oct4POU (Mus musculus); conditions: purified recombinant protein; label: 5'-Cy5
[2] = system: Sox2KE HMG/Oct4POU Sox2 K95E (Mus musculus); conditions: purified recombinant protein; label: 5'-Cy5
[3] = system: Sox2alpha17 HMG/Oct4POU Sox2 8 helix-3 residues replaced by Sox17 counterparts (mutagenic oligo SEQ 10) (Mus musculus); conditions: purified recombinant protein, label: 5'-Cy5
[4] = system: Sox2HMG1/Oct4POU (Mus musculus); conditions: purified recombinant protein; label: 5'-Cy5; variant of canonical sox/oct (0)
[5] = system: Sox2HMGs (core HMG)/Oct4POU (Mus musculus); conditions: purified recombinant protein; label: 5'-Cy5; variant of Nanog canonical
[6] = system: Sox7HMG/Oct4POU (Mus musculus); conditions: purified recombinant protein; label: 5'-Cy5

Sequence | binding result [4] | also measured
CATGGACATTGTAATGCAAAAGAAGCTG (double strand) [Nanog canonical] |  | binding result [1]: binds more weakly; binding result [2]: binds more weakly; binding result [3]: binds more weakly
CGCGGCATTGTCGGGCATGCAAATCGGCGG (double strand) [spacer 4] | binds more weakly | 
CGCGGCATTGTCGGGCGATGCAAATCGGCG (double strand) [spacer 5] | binds more weakly | 
CGGCATTGTCGCGGGCGGATGCAAATCGGC (double strand) [spacer 8] | binds more weakly | 
CGGCATTGTCGCGGGCGGCATGCAAATCGG (double strand) [spacer 9] | binds more weakly | 
CTGGACATTGTATGCAAAAGAA (double strand) [Nanog' compressed (-1)] |  | binding result [5]: no binding; binding result ([3]; variant of Nanog canonical): binds
GCGCGGCATTGTCGGATGCAAATCGGCGGC (double strand) [spacer 2] | binds more weakly | 
GCGCGGCATTGTCGGCATGCAAATCGGCGG (double strand) [spacer 3] | binds more weakly | 
GCGGCATTGTCCGGGCGATGCAAATCGGCG (double strand) [spacer 6] | binds more weakly | 
GCGGCATTGTCCGGGCGGATGCAAATCGGC (double strand) [spacer 7] | binds more weakly | 
GGCATTGTCCGCGGGCGGCATGCAAATCGG (double strand) [spacer 10] | binds more weakly | 
GGCGCGGCATTGTCATGCAAATCGGCGGCG (double strand) [canonical sox/oct (0)] |  | binding result [1]: binds more weakly; binding result [6]: binds more weakly
GGCGCGGCATTGTCATTTGCATCGGCGGCG (double strand) [convergent] | binds more weakly | 
GGCGCGGCATTGTCGATGCAAATCGGCGGC (double strand) [spacer 1] | binds more weakly | 
GGCGCGGGACAATGATGCAAATCGGCGGCG (double strand) [divergent] | binds more weakly | 

For some of these results: Negatives hold for the conditions tested. For some of these results: A weaker result is weaker than the reference pair of the same experiment. For some of these results: The exact form of at least one protein or probe is not confirmed.
